Results deposited as PubChem BioAssay AID504744 (Drosophila RNAi Screening Center, 2011)
In all, the deposit lists about 23,000 reagents; shown is an unselected part of those with a known target gene and a result. In the full data, 98 (0.43%) were called active. 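Only hit calls are given; the phospho-dAkt signals, z-scores and hit direction were not deposited.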 A plus sign joins genes that one reagent is predicted to hit.

Assay: 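Identify dsRNAs that increase or decrease phospho-dAkt after insulin treatment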 (primary screen)
Cells: Drosophila Kc167 cells
Reagents: long dsRNA against Drosophila genes, 250 ng dsRNA per well of a 384-well plate
Duration: 3 days of knock-down, then overnight serum-free starvation before stimulation
Conditions: bovine insulin at 387 nM for 10 minutes after 12 h without serum
Measured: 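In-cell antibody fluorescence for phospho-dAkt in each well over DNA-dye signal, with log2 residuals expressed as z-scores adjusted for cell count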
Call rule: 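Under insulin, a gene counts as a hit if the average z-score of two replicates lies above 2.5 or below -2.5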

no.	Gene	amplicon	outcome
1	Nacalpha (GeneID 36409)	DRSC07477	inactive
2	Pex10 (GeneID 38182)	DRSC08599	inactive
3	Pex10 (GeneID 38182)	DRSC22021	inactive
4	fs(2)ltoPP43 (GeneID 49505)	DRSC02067	inactive
5	CG32117 (GeneID 317864)	DRSC21652	inactive
6	Fum1 (GeneID 31605)	DRSC18344	inactive
7	CG42500 (GeneID 50032)	DRSC14822	inactive
8	CG4743 (GeneID 43101)	DRSC15636	inactive
9	Sar1 (GeneID 42615)	DRSC17049	inactive
10	Sar1 (GeneID 42615)	DRSC22115	inactive
11	CG11327 (GeneID 33940)	DRSC02146	inactive
12	CG31253 + CG31131	DRSC13839	inactive
13	Pak (GeneID 44039)	DRSC12602	inactive
14	Or46a (GeneID 2768728)	DRSC07489	inactive
15	Or46a (GeneID 2768728)	DRSC07490	inactive
16	Or46a (GeneID 2768728)	DRSC21590	inactive
17	Patj (GeneID 44100)	DRSC08712	inactive
18	CG13255 (GeneID 50109)	DRSC11702	inactive
19	CG3199 (GeneID 41725)	DRSC15467	inactive
20	Cyp6a23 (GeneID 36661)	DRSC07383	inactive
21	CG32572 (GeneID 32657)	DRSC19525	inactive
22	CG32572 (GeneID 32657)	DRSC19526	inactive
23	Ugt36D1 (GeneID 35138)	DRSC02600	inactive
24	Art3 (GeneID 41837)	DRSC16065	inactive
25	Pdfr (GeneID 31234)	DRSC18614	inactive
26	msl-1 (GeneID 35121)	DRSC03573	inactive
27	Scox (GeneID 33711)	DRSC03117	inactive
28	Nlg4 (GeneID 42402)	DRSC15108	inactive
29	Nlg4 (GeneID 42402)	DRSC15109	inactive
30	Nlg4 (GeneID 42402)	DRSC15700	inactive
31	Nlg4 (GeneID 42402)	DRSC15701	inactive
32	Nlg4 (GeneID 42402)	DRSC22243	inactive
33	GluRIIE (GeneID 318623)	DRSC13431	inactive
34	Cmpk (GeneID 43165)	DRSC16643	inactive
35	CG12398 (GeneID 32422)	DRSC19454	inactive
36	Naa80 (GeneID 41195)	DRSC16429	inactive
37	CG31161 (GeneID 326123)	DRSC16144	inactive
38	Clic (GeneID 32349)	DRSC19364	inactive
39	CG11180 (GeneID 37330)	DRSC06055	inactive
40	CG17764 (GeneID 31440)	DRSC18135	inactive
41	Muc68D (GeneID 39326)	DRSC10569	inactive
42	mad2 (GeneID 38656)	DRSC10274	inactive
43	CG15115 (GeneID 37192)	DRSC06537	inactive
44	CG7139 (GeneID 40448)	DRSC11611	inactive
45	Or2a (GeneID 31207)	DRSC18690	inactive
46	pix (GeneID 39027)	DRSC10533	inactive
47	mbo (GeneID 41562)	DRSC16123	inactive
48	obst-J (GeneID 40202)	DRSC10821	inactive
49	nudC (GeneID 39879)	DRSC11096	inactive
50	nudC (GeneID 39879)	DRSC11097	inactive
51	del (GeneID 35380)	DRSC03170	inactive
52	Skp2 + CG1103	DRSC12160	inactive
53	Skp2 + CG1103	DRSC22356	inactive
54	beat-IIIa (GeneID 35035)	DRSC01575	inactive
55	beat-IIIa (GeneID 35035)	DRSC01577	inactive
56	beat-IIIa (GeneID 35035)	DRSC02178	inactive
57	Prosalpha7 (GeneID 36018)	DRSC07516	inactive
58	CG7069 (GeneID 42621)	DRSC16188	inactive
59	CG15005 (GeneID 38506)	DRSC08459	inactive
60	CG3355 (GeneID 33667)	DRSC00598	inactive
61	Cyt-c-p (GeneID 34996)	DRSC03310	inactive
62	CG16978 (GeneID 50446)	DRSC02553	inactive
63	CG30172 (GeneID 246496)	DRSC21519	inactive
64	vsg (GeneID 39137)	DRSC10219	inactive
65	Klp54D (GeneID 47216)	DRSC07450	inactive
66	CG6094 (GeneID 34446)	DRSC02927	inactive
67	CG6094 (GeneID 34446)	DRSC22705	inactive
68	Pak3 (GeneID 41995)	DRSC15017	inactive
69	PRL-1 (GeneID 34952)	DRSC03393	inactive
70	snRNA:U1:95Cc (GeneID 3772462)	DRSC13640	inactive
71	CG10508 (GeneID 40342)	DRSC11612	inactive
72	CG10508 (GeneID 40342)	DRSC11613	inactive
73	Obp49a (GeneID 36399)	DRSC22562	inactive
74	maca (GeneID 41892)	DRSC15738	inactive
75	CheB42c (GeneID 2768715)	DRSC04972	inactive
76	CG6685 (GeneID 39172)	DRSC10695	inactive
77	Cht12 (GeneID 246535)	DRSC03844	inactive
78	Gmd (GeneID 33716)	DRSC03119	inactive
79	CRIF (GeneID 40395)	DRSC11811	inactive
80	CG6294 + CG6299 + CG15642	DRSC19981	inactive
81	Ibf1 (GeneID 41103)	DRSC16419	inactive
82	MAN1 (GeneID 37838)	DRSC04342	inactive
83	CG17385 (GeneID 36603)	DRSC06664	inactive
84	ND-49L (GeneID 43073)	DRSC14437	inactive
85	Cyp6a9 (GeneID 36663)	DRSC07385	inactive
86	Or9a (GeneID 31975)	DRSC18692	inactive
87	Cp15 (GeneID 38999)	DRSC11118	inactive
88	dlg1 (GeneID 32083)	DRSC18895	inactive
89	dlg1 (GeneID 32083)	DRSC18896	inactive
90	dlg1 (GeneID 32083)	DRSC19767	inactive
91	dlg1 (GeneID 32083)	DRSC20324	inactive
92	CG8910 (GeneID 36896)	DRSC07414	inactive
93	CG16736 (GeneID 41101)	DRSC15145	inactive
94	ppk25 (GeneID 2768722)	DRSC04973	inactive
95	CG15256 (GeneID 34911)	DRSC01940	inactive
96	Fbp2 (GeneID 34259)	DRSC03327	inactive
97	CG30195 (GeneID 37592)	DRSC04155	inactive
98	sut4 (GeneID 36055)	DRSC07703	inactive
99	Cpr47Ed (GeneID 36192)	DRSC07331	inactive
100	MBD-R2 (GeneID 41498)	DRSC14180	inactive
101	CG10265 (GeneID 36676)	DRSC05986	inactive
102	CG10265 (GeneID 36676)	DRSC21680	inactive
103	Ppcs (GeneID 42295)	DRSC14127	inactive
104	sdk (GeneID 31017)	DRSC18831	inactive
105	Ptp52F (GeneID 36790)	DRSC06717	inactive
106	Nopp140 (GeneID 40433)	DRSC11872	inactive
107	CG31661 (GeneID 33330)	DRSC00296	inactive
108	Coop (GeneID 35677)	DRSC06604	inactive
109	CG32017 (GeneID 317823)	DRSC17183	inactive
110	numb (GeneID 34263)	DRSC03584	inactive
111	CG33460 (GeneID 3885588)	DRSC05570	inactive
112	bsh (GeneID 35266)	DRSC03498	inactive
113	CG12464 (GeneID 36516)	DRSC06156	inactive
114	CG7707 (GeneID 39923)	DRSC10903	inactive
115	cmet (GeneID 53561)	DRSC03511	inactive
116	CG16700 (GeneID 32694)	DRSC19755	inactive
117	KP78a + KP78b	DRSC16721	inactive
118	KP78a + KP78b	DRSC16722	inactive
119	ppk22 (GeneID 318593)	DRSC22093	inactive
120	Hmu (GeneID 43294)	DRSC16705	inactive
121	Fign (GeneID 33544)	DRSC00592	inactive
122	Hil (GeneID 37328)	DRSC05989	inactive
123	Hil (GeneID 37328)	DRSC06395	inactive
124	CG31244 (GeneID 326129)	DRSC21589	inactive
125	CG5928 (GeneID 31539)	DRSC18391	inactive
126	CG30065 (GeneID 246431)	DRSC05420	inactive
127	Drsl2 (GeneID 38408)	DRSC08160	inactive
128	mgr (GeneID 41365)	DRSC16099	inactive
129	CG14687 (GeneID 41297)	DRSC14910	inactive
130	CG15186 (GeneID 40797)	DRSC12566	inactive
131	Tim17b2 (GeneID 44381)	DRSC03457	inactive
132	CG10359 (GeneID 38434)	DRSC08156	inactive
133	Jupiter (GeneID 41392)	DRSC15204	inactive
134	Jupiter (GeneID 41392)	DRSC15205	inactive
135	Jupiter (GeneID 41392)	DRSC15389	inactive
136	CG8519 (GeneID 38745)	DRSC10985	inactive
137	Dus2 (GeneID 32377)	DRSC19591	inactive
138	Gmppb (GeneID 40599)	DRSC12169	inactive
139	Usp8 (GeneID 42509)	DRSC15876	inactive
140	Ir64a (GeneID 38616)	DRSC09759	inactive
141	Ir64a (GeneID 38616)	DRSC09760	inactive
142	CecB (GeneID 43598)	DRSC16605	inactive
143	CG12020 (GeneID 38233)	DRSC08226	inactive
144	spag4 (GeneID 34581)	DRSC02973	inactive
145	Lrr47 (GeneID 34449)	DRSC03365	inactive
146	CG31077 (GeneID 318583)	DRSC13805	inactive
147	Cyp6a16Psi (retired record) (GeneID 3772661)	DRSC03307	inactive
148	CysRS (GeneID 36784)	DRSC05948	inactive
149	CG32668 (GeneID 318147)	DRSC18879	inactive
150	CG1265 (GeneID 38517)	DRSC08288	inactive
151	Osi1 (GeneID 40752)	DRSC12271	inactive
152	alpha-Est3 (GeneID 40907)	DRSC12615	inactive
153	CG7970 (GeneID 38205)	DRSC08605	inactive
154	CG34161 (GeneID 5740441)	DRSC01132	inactive
155	CG14118 (GeneID 39465)	DRSC10122	inactive
156	CG17999 (GeneID 37357)	DRSC04300	inactive
157	nonA (GeneID 32603)	DRSC20357	inactive

No new results follow: 14 of the entries above.
no.	Gene	amplicon	outcome
14	Or46a (GeneID 2768728)	DRSC07489	inactive
15	Or46a (GeneID 2768728)	DRSC07490	inactive
16	Or46a (GeneID 2768728)	DRSC21590	inactive
17	Patj (GeneID 44100)	DRSC08712	inactive
18	CG13255 (GeneID 50109)	DRSC11702	inactive
19	CG3199 (GeneID 41725)	DRSC15467	inactive
20	Cyp6a23 (GeneID 36661)	DRSC07383	inactive
21	CG32572 (GeneID 32657)	DRSC19525	inactive
22	CG32572 (GeneID 32657)	DRSC19526	inactive
23	Ugt36D1 (GeneID 35138)	DRSC02600	inactive
24	Art3 (GeneID 41837)	DRSC16065	inactive
25	Pdfr (GeneID 31234)	DRSC18614	inactive
26	msl-1 (GeneID 35121)	DRSC03573	inactive
27	Scox (GeneID 33711)	DRSC03117	inactive
